In PubChem BioAssay AID2685 (National Center for Advancing Translational Sciences (NCATS), 2010):
This is one part of the list. The main result of the screen is listed elsewhere. These columns were measured beside it and carry no call. Most of these compounds were active or inconclusive in the main read-out, so they are no random draw. Potencies come from curve fits of mixed quality, noted in brackets.

Test: qHTS Assay for Lipid Storage Modulators in Drosophila S3 Cells;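 on cell number change: cells counted by Cell Tracker Red CMTPX staining in the red channel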
Conditions: BODIPY lipid droplet fluorescence, 18-24 h; for cell number change: measured here: cell count max response, cells fed with added oleic acid
Summary of the method: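 Drosophila S3 cells loaded with oleic acid (400 uM, as added) and compounds at several concentrations; lipid droplets imaged by 488-nm laser-scanning cytometry, 500–530 nm intensity and object ratio to cell channel. Percent activity normalized to 20 uM Triacsin C.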

[1] = measured here: lipid fluorescence (Fed channel) AC50, cells fed with added oleic acid
[2] = measured here: cell number channel AC50, cells fed with added oleic acid

| Compound | cell number change | AC50 [1] | AC50 [2] |
| --- | --- | --- | --- |
| C=CCc1cc(/C=C2/NC(=O)N(CC(=O)OC)C2=O)cc(OC)c1O | 4.35% | 3.66 µM [falling, single point] | – |
| CCCn1cc(S(=O)(=O)c2ccccc2)c(=O)c2cc(F)c(N3CCN(C)CC3)cc21 | 24.8% | 0.82 µM [rising, partial curve, poor fit] | – |
| COCC1CCCCN1C(=O)C1CCN(c2nc(-c3ccccc3)nc3c2CCC3)CC1 (centres undefined) | -3.96% | – | 5.8 µM [falling, partial curve] |
| Nc1c(C(=O)NCc2ccco2)nnn1CC(=O)Nc1ccc2c(c1)OCO2 | – | 0.82 µM [rising, single point] | – |
| O=C(CCc1ccccc1)NC(=S)NCc1ccco1 | 20.6% | 0.58 µM [falling, full curve] | 0.92 µM [falling, full curve] |
| COCCn1c(SCC(=O)/C=C2\N(C)c3ccccc3C2(C)C)nnc1-c1ccncc1 | – | 1.84 µM [rising, full curve] | 2.31 µM [rising, partial curve] |
| CCC(C)(C)NC(=O)C(c1ccc(OC)cc1)N(C(=O)CCC(=O)Nc1cc(C)on1)c1ccccc1F (centres undefined) | 18.3% | 0.326 µM [rising, partial curve] | – |
| Cc1ccc(-n2c(SCC3CNC(=O)O3)nnc2-c2ccccc2)cc1C (centres undefined) | 11.1% | 14.6 µM [rising, single point] | – |
| CCOC(=O)C(CCCOc1cccc(CC)c1)C(=O)OCC | 116% | 0.82 µM [falling, single point] | 20.6 µM [rising, single point] |
| O=C(O)C(NS(=O)(=O)c1ccc(F)cc1)c1ccccc1 (centres undefined) | -93% | – | 18.4 µM [falling, single point] |
| CCCCN(C(C)=O)C1CC(=O)N(c2ccc(OCCC)cc2)C1=O (centres undefined) | 14.1% | 25.9 µM [rising, single point] | – |
| CCOCCCn1c(SCC(=O)NCc2ccc3c(c2)OCO3)nc2ccccc2c1=O | 6.58% | – | 0.651 µM [rising, partial curve] |
| CC1CCCCN1S(=O)(=O)c1ccc(S(=O)(=O)N2CCN(c3ccc(F)cc3)CC2)cc1 (centres undefined) | -12.6% | 0.731 µM [rising, single point] | 2.06 µM [falling, partial curve, poor fit] |
| O=C(c1cc2c(s1)-c1ccccc1OC2)N1CCN(c2ccccn2)CC1 | -2.48% | – | – |
| O=C(NCc1cccnc1)C(=O)Nc1nc2ccccc2s1 | 39.1% | 29.1 µM [rising, single point] | 29.1 µM [rising, single point] |
| COc1cc2c(cc1OC)CN(C(=O)c1cc(=O)c3ccccc3o1)CC2 | -0.4% | – | – |
| COc1ccccc1-n1c(-c2ccc(NS(C)(=O)=O)cc2)n[nH]c1=S | -54.8% | – | 16.4 µM [falling, single point] |
| CCCOc1ccccc1C1NC(=O)NC(C)=C1C(=O)OCc1ccccc1 (centres undefined) | -36.8% | 29.1 µM [falling, single point] | 29.1 µM [falling, single point] |
| CCOC(=O)C1CCN(S(=O)(=O)c2cccc(-c3cn4cccnc4n3)c2)CC1 | -25.7% | 5.17 µM [rising, partial curve] | – |

| Compound | cell number change | AC50 [1] | AC50 [2] |
| --- | --- | --- | --- |
| CC(=O)c1ccc(OCC(=O)Nc2ccc3nc(C)sc3c2)cc1 | – | 2.31 µM [falling, partial curve] | – |
| CCc1ccc2c(c1)cc(CN(C(=S)Nc1ccc(Cl)cc1)C1CC1)c1nnnn12 | – | – | 0.259 µM [rising, full curve] |
| Cc1ccc(C)c(S(=O)(=O)NCc2ccc(C(=O)N3CCN(C)CC3)cc2)c1 | -1.62% | 20.6 µM [falling, partial curve] | – |
| COc1ccc(C(=O)NC2CC(C)(C)Cc3c2cnn3-c2ccccc2C)o1 (centres undefined) | -15.6% | 29.1 µM [falling, single point] | – |
| O=C(Nc1ccccc1Sc1ccccc1)c1ccc(F)cc1 | 24.2% | 20.6 µM [rising, partial curve] | – |
| Cc1ccccc1C(=O)NC(=S)Nc1ccccc1C(=O)O | -19.7% | 0.0651 µM [falling, full curve, poor fit] | 0.0731 µM [falling, full curve, poor fit] |
| O=C1Nc2ccccc2C12Nc1ccccc1-c1nc3ccccc3n12 (centres undefined) | -55.3% | – | 20.6 µM [falling, partial curve] |
| O=C(/C=C(O)/C=C/c1ccc(O)cc1)/C=C/c1ccc(O)cc1 | -99.8% | 14.6 µM [falling, partial curve] | 8.2 µM [falling, partial curve] |
| O=C(O)c1cccnc1NC1CCCC1 | – | 0.58 µM [falling, single point] | – |
| CCCOc1ccc(OCCCCNC(C)CC)cc1 (centres undefined) | -44.3% | – | 29.1 µM [falling, single point] |
| CCN(CC)c1ccc2c(-c3ccc(S(=O)(=O)O)cc3S(=O)(=O)[O-])c3ccc(=[N+](CC)CC)cc-3oc2c1 | -89.2% | 0.731 µM [falling, full curve] | – |
| CC(C)CC(OC(=O)c1cccs1)C(=O)NCC1CCCO1 (centres undefined) | -12% | – | – |
| Cc1occc1C(=O)Nc1cccc(C(=O)O)c1 | -56.6% | 4.11 µM [falling, full curve] | 5.8 µM [falling, full curve] |
| CN(C)C(CNC(=O)c1cccc(S(=O)(=O)NCc2ccccc2)c1)c1ccco1 (centres undefined) | 119% | – | 20.6 µM [rising, single point] |
| O=C(CC1CC2CCC1C2)NCCc1ccc(Cl)cc1 (centres undefined) | 12.5% | 0.731 µM [rising, partial curve, poor fit] | – |
| Cc1ccc(OCCC(=O)OCC(=O)N2CCN(S(=O)(=O)c3ccc(C)cc3)CC2)cc1 | 3.52% | 3.66 µM [rising, partial curve] | – |
| CCN1CCC(NCCc2ccc(F)cc2)CC1 | -5.52% | – | – |
| COc1ccc(C(=O)c2ccc(Br)cc2)cc1 | -59.2% | 5.8 µM [falling, single point] | 6.51 µM [falling, partial curve] |
| COc1cc2cc(-c3ccc(O)cc3O)nc(C)c2cc1OC | -51.7% | 7.31 µM [falling, partial curve] | 6.51 µM [falling, partial curve] |

| Compound | cell number change | AC50 [1] | AC50 [2] |
| --- | --- | --- | --- |
| Cc1ccc(Cl)cc1NC(=O)CN1CCN(S(=O)(=O)N2CCOCC2)CC1 | -10.3% | 29.1 µM [rising, single point] | 0.259 µM [falling, partial curve, poor fit] |
| Cc1cc(C)c2nc(SCC#N)cc(C)c2c1 | -9.75% | 0.651 µM [falling, full curve, poor fit] | – |
| Cc1ccc(NCc2ccc(O)c3ncccc23)cc1 | -39.9% | 13 µM [falling, partial curve, poor fit] | 5.8 µM [falling, partial curve, poor fit] |
| CCC1CCCCN1C(=O)CCS(=O)(=O)c1ccccc1 (centres undefined) | 13% | 5.17 µM [rising, full curve, poor fit] | – |
| Cc1cc(C)cc(NC(=O)Nn2cnnc2)c1 | 57.9% | 29.1 µM [rising, partial curve] | 5.8 µM [rising, partial curve] |
| Brc1ccc(C2=CC(c3ccco3)n3ncnc3N2)cc1 (centres undefined) | – | – | 0.651 µM [rising, single point] |
| N#Cc1ccccc1OCC(=O)NC(=O)NCc1ccco1 | -2.72% | 9.2 µM [rising, single point] | – |
| O=C(CCCN1C(=O)C(c2ccccc2)Oc2cccnc21)NCCc1ccc(Cl)cc1 (centres undefined) | -5.9% | – | – |
| COc1cc(/C=C/C(=O)OCC(=O)NCc2ccccc2OC)ccc1O | 24.6% | 14.6 µM [rising, partial curve] | – |
| CC1Oc2ccccc2N(CC(=O)Nc2ccc3c(c2)OCCO3)C1=O (centres undefined) | – | – | 5.17 µM [rising, single point] |
| CCc1ccc(CNC(=O)c2ccc3c(c2)NC(=O)C(N2CCOCC2)S3)cc1 (centres undefined) | -12.7% | 23.1 µM [falling, single point] | – |
| c1ccc(NCc2ccncc2)cc1 | -0.525% | 29.1 µM [rising, single point] | – |
| Cc1noc(C)c1S(=O)(=O)Nc1ccc(C(=O)Nc2ccc(OC(F)(F)F)cc2)cc1 | 14.1% | 25.9 µM [rising, single point] | – |
| COc1cccc(C(=O)Cn2c(=O)n(CC3CCCO3)c(=O)c3ccccc32)c1 (centres undefined) | 40.1% | 5.8 µM [rising, partial curve] | 4.11 µM [rising, single point] |
| CCc1cc2c(=O)[nH]c(Cc3ccccc3)nc2s1 | 72.2% | 29.1 µM [rising, single point] | 16.4 µM [rising, partial curve] |
| c1csc(CN2CCOCC2)c1 | -46% | 29.1 µM [falling, single point] | 3.66 µM [falling, full curve] |
| Cc1ccc(-c2nn3c(-c4cccc(Cl)c4)nnc3s2)cc1 | -5.17% | 0.651 µM [rising, full curve, poor fit] | – |
| CS(=O)(=O)c1nc2c(cc1C#N)CCCC2 | 11.4% | – | 0.146 µM [rising, full curve, poor fit] |
| Cc1nc2nc(COc3ccccc3)[nH]n2c(=O)c1Cc1ccccc1 | – | 5.17 µM [falling, partial curve] | 6.51 µM [falling, partial curve] |

Nothing new here: 5 of the compounds above.

| Compound | cell number change | AC50 [1] | AC50 [2] |
| --- | --- | --- | --- |
| Brc1ccc(C2=CC(c3ccco3)n3ncnc3N2)cc1 (centres undefined) | – | – | 0.651 µM [rising, single point] |
| N#Cc1ccccc1OCC(=O)NC(=O)NCc1ccco1 | -2.72% | 9.2 µM [rising, single point] | – |
| O=C(CCCN1C(=O)C(c2ccccc2)Oc2cccnc21)NCCc1ccc(Cl)cc1 (centres undefined) | -5.9% | – | – |
| COc1cc(/C=C/C(=O)OCC(=O)NCc2ccccc2OC)ccc1O | 24.6% | 14.6 µM [rising, partial curve] | – |
| CC1Oc2ccccc2N(CC(=O)Nc2ccc3c(c2)OCCO3)C1=O (centres undefined) | – | – | 5.17 µM [rising, single point] |
